From PubChem BioAssay AID330 (DTP/NCI, 2004)
The list is a part of this screen's results and no random one: it gathers tests that were run many times, whatever their T/C, doses with no T/C, and many T/C values between a quarter and a half above the control. Other doses and runs of a compound stand elsewhere. T/C gives the treated animals as a percentage of the vehicle group. Some entries give survivors of the animals treated and no T/C: the source files T/C as zero there, which appears to mark a toxic dose or a test without result, not a measured value. Some survivor counts are full or nearly so, which does not show that the dose was tolerated: the source hardly ever lists a survival T/C far under the control, and the zero likely stands for such cases as well. Counts of survivors are from the toxicity check (mostly the fifth day) where no day follows; animals may have died later. Schedules are NCI's codes, read here as Q, the interval in days (D) or hours (H), X, the number of doses. Some entries were tested several times; their values stand side by side, smallest first. Where survival is the endpoint, this PubChem deposit counts one and a half times the control or more as active, and values a quarter to a half above the control carry no call in these data; other NCI protocols may use other cut-offs. Additions like (4×) count equal records among those shown. Some T/C values are followed by the survivors on the day toxicity was checked, most often the fifth; without a count, all were alive then.

System: P388 leukemia ip, CD2F1 mice, survival T/C
Test: NCI In Vivo Anticancer Drug Screen. Data for tumor model P388 Leukemia (intraperitoneal) in CD2F1 (CDF1) mice
Settings: T/C endpoint: median survival time, higher T/C = longer survival
[1] = dose: 400.0 mg/kg/injection, schedule: Q01DX001 (ip), vehicle: Klucel (hydroxypropylcellulose) (HPC)
[2] = dose: 200.0 mg/kg/injection, schedule: Q01DX009 (ip), vehicle: Klucel (hydroxypropylcellulose) (HPC)
[3] = dose: 25.0 mg/kg/injection, schedule: Q01DX009 (ip), vehicle: saline with Tween-80
[4] = dose: 50.0 mg/kg/injection, schedule: Q01DX009 (ip), vehicle: saline with Tween-80
[5] = dose: 100.0 mg/kg/injection, schedule: Q01DX009 (ip), vehicle: saline with Tween-80
[6] = dose: 200.0 mg/kg/injection, schedule: Q01DX009 (ip), vehicle: saline with Tween-80
[7] = dose: 200.0 mg/kg/injection, schedule: Q01DX005 (ip), vehicle: saline with Tween-80
[8] = dose: 200.0 mg/kg/injection, schedule: Q01DX009 (ip), vehicle: saline
[9] = dose: 8.0 mg/kg/injection, schedule: Q01DX009 (ip), vehicle: Klucel (hydroxypropylcellulose) (HPC)
[10] = dose: 200.0 mg/kg/injection, schedule: Q01DX005 (ip), vehicle: saline

Cc1c(CNc2ccc(C(=O)NC(CC(=O)O)CC(=O)O)cc2)ccc2nc(N)nc(N)c12
T/C (dose: 1.5 mg/kg/injection, schedule: Q01DX009 (ip), vehicle: saline with Tween-80): 127 % of control
T/C (dose: 3.0 mg/kg/injection, schedule: Q01DX009 (ip), vehicle: saline with Tween-80): 145 % of control
T/C (dose: 6.0 mg/kg/injection, schedule: Q01DX009 (ip), vehicle: saline with Tween-80): 140 % of control
survivor count (dose: 6.25 mg/kg/injection, schedule: Q04DX003 (ip), vehicle: saline): 5 of 6
survivor count (dose: 12.5 mg/kg/injection, schedule: Q01DX009 (ip), vehicle: saline sonified): 6 of 6
survivor count (dose: 12.5 mg/kg/injection, schedule: Q04DX003 (ip), vehicle: saline): 4 of 6
survivor count (dose: 25.0 mg/kg/injection, schedule: Q01DX009 (ip), vehicle: saline sonified): 5 of 6
survivor count (dose: 25.0 mg/kg/injection, schedule: Q04DX003 (ip), vehicle: saline): 4 of 6
survivor count (dose: 50.0 mg/kg/injection, schedule: Q01DX009 (ip), vehicle: saline sonified): 4 of 6
survivor count (dose: 50.0 mg/kg/injection, schedule: Q04DX003 (ip), vehicle: saline): 0 of 6
survivor count (dose: 75.0 mg/kg/injection, schedule: Q04DX003 (ip), vehicle: saline sonified): 6 of 6

COc1cc2c(OC)c(c1)CCC1=CC(=O)C(=CC1=O)CC2
survivor count [1]: 0 of 5

CN(C)CCNC(=Cc1ccc2ccccc2[n+]1C)NCCN(C)C
survivor count (dose: 120.0 mg/kg/injection, schedule: Q01DX005 (ip), vehicle: saline): 4 of 6

C=C(COC(=O)Nc1cc(Cl)ccc1C)C(=O)O
survivor count (dose: 100.0 mg/kg/injection, schedule: Q01DX009 (ip), vehicle: Klucel (hydroxypropylcellulose) (HPC)): 3 of 6
survivor count [2]: 2 of 6

CSCCCNC(=O)c1csc(-c2csc(CCNC(=O)[C@@H](NSc3ccccc3[N+](=O)[O-])[C@@H](C)O)n2)n1
survivor count (dose: 100.0 mg/kg/injection, schedule: Q01DX005 (ip), vehicle: saline with Tween-80): 5 of 5

Cn1cnc([N+](=O)[O-])c1Sc1ccc(Cl)cc1
survivor count (dose: 6.25 mg/kg/injection, schedule: Q01DX009 (ip), vehicle: saline with Tween-80): 6 of 6
survivor count (dose: 12.5 mg/kg/injection, schedule: Q01DX009 (ip), vehicle: saline with Tween-80): 6 of 6
survivor count [3]: 6 of 6
survivor count [4]: 6 of 6
survivor count [5]: 6 of 6
survivor count [6]: 6 of 6

CC(C)=CCC(OC(=O)C=C(C)C)C1=CC(=O)c2c(O)ccc(O)c2C1=O (stereo not drawn)
survivor count (dose: 25.0 mg/kg/injection, schedule: Q01DX009 (ip), vehicle: water): 1 of 6
survivor count (dose: 40.0 mg/kg/injection, schedule: Q01DX009 (ip), vehicle: saline with Tween-80): 4 of 6
survivor count (dose: 50.0 mg/kg/injection, schedule: Q01DX009 (ip), vehicle: water): 1 of 6

CC1=Nc2ccccc2N(C)/C1=C/C1=CC(=O)c2ccccc2C1=O
survivor count (dose: 400.0 mg/kg/injection, schedule: Q04DX003 (ip), vehicle: saline with Tween-80): 1 of 6

COc1ccc2c(c1)n([O-])c1ccccc1[n+]2=O
T/C (dose: 50.0 mg/kg/injection, schedule: Q01DX005 (ip), vehicle: saline with Tween-80): 127 and 141 % of control
survivor count [7]: 1 of 5 and 5 of 6

Oc1c(CN2CCCC2)cc(Nc2cc(/C=C/c3ccc(Cl)cc3)nc(/C=C\c3ccc(Cl)cc3)n2)cc1CN1CCCC1
survivor count (dose: 20.0 mg/kg/injection, schedule: Q01DX009 (ip), vehicle: saline with Tween-80): 6 of 6

CC(C)c1ccc2c[n+]3ccccc3cc2c1
survivor count (dose: 25.0 mg/kg/injection, schedule: Q01DX005 (ip), vehicle: Klucel (hydroxypropylcellulose) (HPC)): 0 of 5 and 2 of 5

CC(C)c1cccc(O)c1O
survivor count [8]: 0 of 6
survivor count (dose: 400.0 mg/kg/injection, schedule: Q01DX009 (ip), vehicle: saline): 0 of 6
survivor count (dose: 600.0 mg/kg/injection, schedule: Q01DX009 (ip), vehicle: saline): 0 of 6

COC(=O)Nc1cn2ccc(C(Cl)=C(Cl)Cl)cc2n1
survivor count (dose: 25.0 mg/kg/injection, schedule: Q01DX009 (ip), vehicle: Klucel (hydroxypropylcellulose) (HPC)): 4 of 6
T/C [2]: 137 % of control [5 of 6 alive]

CN1C(=O)C2(C)SSC1(C)C(=O)N2C
survivor count (dose: 50.0 mg/kg/injection, schedule: Q01DX009 (ip), vehicle: saline): 6 of 6
survivor count (dose: 100.0 mg/kg/injection, schedule: Q01DX009 (ip), vehicle: saline): 6 of 6
survivor count [8]: 5 of 6

O=C/C=C/c1ccc([N+](=O)[O-])cc1Cl
survivor count [6]: 6 of 6
survivor count (dose: 400.0 mg/kg/injection, schedule: Q01DX009 (ip), vehicle: saline with Tween-80): 6 of 6

CC1OC1C(=O)C1(O)C(C)C(O)C23OC2(C(O)c2c(O)cccc2C3=O)C1O (stereo not drawn)
T/C (dose: 2.0 mg/kg/injection, schedule: Q01DX009 (ip), vehicle: Klucel (hydroxypropylcellulose) (HPC)): 129 % of control
T/C (dose: 4.0 mg/kg/injection, schedule: Q01DX009 (ip), vehicle: Klucel (hydroxypropylcellulose) (HPC)): 146 % of control
T/C [9]: 148 % of control [5 of 6 alive]
survivor count [9]: 6 of 6
survivor count (dose: 16.0 mg/kg/injection, schedule: Q01DX009 (ip), vehicle: Klucel (hydroxypropylcellulose) (HPC)): 3 of 6

Cc1c(C(=N)C(C#N)C#N)c(=N)oc2c1ccc1ccccc12
survivor count [5]: 4 of 6

CC1(NC(=O)N(CCCl)N=O)CCCC1
survivor count (dose: 25.0 mg/kg/injection, schedule: Q04DX003 (ip), vehicle: saline with Tween-80): 6 of 6

CC(=O)NCC(C)c1ccccc1 (stereo not drawn)
survivor count [3]: 6 of 6
T/C [4]: 94, 101 (2×), 105 % of control
T/C [5]: 99, 100, 105, 141 % of control
T/C [6]: 87, 99, 105, 107 % of control

CC1=C(C)C2C(=O)NC(=O)NC12 (stereo not drawn)
survivor count [1]: 5 of 6

Cc1ccc(NS(=O)(=O)N2CCCCC2)cc1
T/C (dose: 50.0 mg/kg/injection, schedule: Q01DX009 (ip), vehicle: Klucel (hydroxypropylcellulose) (HPC)): 125 % of control

Cc1c[n+]2ccccc2n1C
survivor count (dose: 12.5 mg/kg/injection, schedule: Q01DX009 (ip), vehicle: saline): 6 of 6

CNC(=O)OCc1c(-c2ccccc2)nc2n1CCS2
survivor count (dose: 100.0 mg/kg/injection, schedule: Q01DX001 (ip), vehicle: Klucel (hydroxypropylcellulose) (HPC)): 0 of 6
survivor count (dose: 200.0 mg/kg/injection, schedule: Q01DX001 (ip), vehicle: Klucel (hydroxypropylcellulose) (HPC)): 0 of 6
survivor count [1]: 0 of 6

OCCN(CCO)CC(O)c1cc(-c2ccccc2)nc2ccccc12 (stereo not drawn)
survivor count (dose: 200.0 mg/kg/injection, schedule: Q01DX005 (ip), vehicle: Klucel (hydroxypropylcellulose) (HPC)): 0 of 5

Cn1c(N)c2c(=O)n(C)c3c(c2c(C#N)c1=O)CCSc1ccccc1-3
survivor count [7]: 5 of 6

CC1(CCN2CCC(O)(c3ccc(Cl)cc3)CC2)Oc2ccccc2O1
survivor count (dose: 100.0 mg/kg/injection, schedule: Q01DX001 (ip), vehicle: saline with Tween-80): 0 of 6
survivor count (dose: 200.0 mg/kg/injection, schedule: Q01DX001 (ip), vehicle: saline with Tween-80): 0 of 6
survivor count (dose: 400.0 mg/kg/injection, schedule: Q01DX001 (ip), vehicle: saline with Tween-80): 0 of 6

NCC(O)c1ccc(Nc2ccnc3cc(Cl)ccc23)cc1 (stereo not drawn)
survivor count [10]: 0 of 5

CC(=O)Oc1ccc(C(O)CN(C)OC(C)=O)cc1OC(C)=O (stereo not drawn)
survivor count (dose: 100.0 mg/kg/injection, schedule: Q01DX005 (ip), vehicle: Klucel + Tween-80): 5 of 6
survivor count (dose: 200.0 mg/kg/injection, schedule: Q01DX005 (ip), vehicle: Klucel + Tween-80): 0 of 6

O=C(O)CCSSCCCCS(=O)O
T/C (dose: 50.0 mg/kg/injection, schedule: Q01DX005 (ip), vehicle: saline): 126 % of control
T/C (dose: 100.0 mg/kg/injection, schedule: Q01DX005 (ip), vehicle: saline): 131 % of control
survivor count [10]: 0 of 6
